Test results taken from patent US7985832B2 (Kansas State University Research Foundation, priority 2005, dated 2011).
HELM strings list residues between dots; [ac] is acetyl, [am] amide, other brackets name non-standard units.

Assay: peptide made by a vendor
Settings: whole synthesis, RP-HPLC

PEPTIDE1{R.L.K.E.L.I.T.T.G.G.Q.K.I.G.E.K.I.R.R.I.G.Q.R.I.K.D.F.F.K.N.L.Q.P.R.E.E.K.S}$$$$V2.0
final HPLC purity: >99%
